Results as given in paper doi:10.1101/2025.05.22.655611.
Results are given in words; binding and its absence hold for the method and conditions named. Binding seen in cells or lysates may run through a third protein. Some results given as binding are weak or reduced against the parent protein; the word gives no strength.

Chains of the proteins cited; added tags and fusions are not shown.
UniProt Q13283: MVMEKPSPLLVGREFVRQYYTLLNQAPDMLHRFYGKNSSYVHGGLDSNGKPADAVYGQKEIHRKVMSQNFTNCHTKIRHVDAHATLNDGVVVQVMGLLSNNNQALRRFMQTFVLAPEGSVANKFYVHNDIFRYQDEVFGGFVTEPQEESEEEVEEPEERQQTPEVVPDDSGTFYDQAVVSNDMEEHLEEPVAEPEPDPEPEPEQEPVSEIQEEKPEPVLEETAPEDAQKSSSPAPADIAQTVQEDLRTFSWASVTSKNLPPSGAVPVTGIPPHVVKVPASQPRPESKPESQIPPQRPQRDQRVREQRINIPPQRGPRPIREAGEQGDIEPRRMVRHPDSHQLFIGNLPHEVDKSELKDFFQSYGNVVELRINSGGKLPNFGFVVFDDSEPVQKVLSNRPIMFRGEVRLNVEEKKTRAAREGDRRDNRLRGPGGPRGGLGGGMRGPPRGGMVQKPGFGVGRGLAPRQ

Biological target: T1, eIF2A (human, endogenous in HEK 293T cells) (human (endogenous in HEK 293T)) (UniProt Q9BY44)
T1 sequence: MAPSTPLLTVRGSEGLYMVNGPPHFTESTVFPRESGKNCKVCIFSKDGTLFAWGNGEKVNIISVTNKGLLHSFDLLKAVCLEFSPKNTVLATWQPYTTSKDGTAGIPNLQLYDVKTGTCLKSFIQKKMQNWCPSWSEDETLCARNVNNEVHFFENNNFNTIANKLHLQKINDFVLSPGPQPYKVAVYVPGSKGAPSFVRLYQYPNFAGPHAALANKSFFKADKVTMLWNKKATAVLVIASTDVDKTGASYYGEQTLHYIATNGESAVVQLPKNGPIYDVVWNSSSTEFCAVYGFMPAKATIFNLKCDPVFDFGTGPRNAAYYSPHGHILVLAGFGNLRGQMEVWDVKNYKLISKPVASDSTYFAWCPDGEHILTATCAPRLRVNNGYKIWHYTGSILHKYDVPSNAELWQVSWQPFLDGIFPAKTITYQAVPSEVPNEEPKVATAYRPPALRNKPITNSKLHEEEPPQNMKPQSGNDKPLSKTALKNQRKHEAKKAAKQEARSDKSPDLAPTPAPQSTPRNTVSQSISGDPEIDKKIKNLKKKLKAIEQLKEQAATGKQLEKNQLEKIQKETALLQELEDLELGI
Experiment: co-IP

binding: binds
Substance: G3BP1 (human, endogenous in HEK 293T cells) (from UniProt Q13283 1-466)
